{
  "sequences": {"note": "Protein sequences, listed by entry. Tags and fused reporters are not part of them.", "UniProt Q0JBA9, entry or part of it": "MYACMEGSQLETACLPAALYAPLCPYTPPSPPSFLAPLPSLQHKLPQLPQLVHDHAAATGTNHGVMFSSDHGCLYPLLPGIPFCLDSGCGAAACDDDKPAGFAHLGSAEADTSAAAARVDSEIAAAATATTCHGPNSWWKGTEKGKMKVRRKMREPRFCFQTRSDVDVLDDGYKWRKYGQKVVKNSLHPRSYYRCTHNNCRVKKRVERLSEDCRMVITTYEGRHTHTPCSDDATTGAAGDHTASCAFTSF"},
  "source": "paper PMC7819943",
  "about": "“Rice protein-binding microarrays: a tool to detect cis-acting elements near promoter regions in rice”",
  "note": "The other results are listed elsewhere or left out.",
  "data": [
    {"target": "OsWRKY34 (Oryza sativa, UniProt Q0JBA9 1-250)", "assay": "protein-binding microarray (RPBM); PBS, 2% BSA, 51.3 ng/ul salmon testes DNA, 50 uM zinc acetate, 200 nM TF, 25 C, 1 h; high values mean tight binding", "details": "protein: recombinant; tags: N-terminal polyhistidine and DsRed monomer fusion (pET32a); label: CyDye5-dUTP incorporated in the synthesized complementary strand; 3' TTTTT single-stranded linker to array surface; dsDNA, one strand shown", "in_short": "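Binding signal is defined as the fluorescence intensity of each feature in arbitrary units, read on an Axon 4000B scanner. Transcription factors with N-terminal polyhistidine and DsRed fusions came from E. coli BL21-CodonPlus and were purified on Ni–NTA. They were incubated at 200 nM for 1 h at 25 °C on a custom Agilent array that had been made double-stranded with Cy5-dUTP, with 50 µM zinc acetate present, and the array was washed.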", "values": [
      {"sequence": "TAAGTTAGCACCTGTTCTACCGCTTTGTTAGGGTAGGTTTCGGAGTCACCTAGTGCAG", "binding signal": "12500 fluorescence intensity (a.u.)"},
      {"sequence": "ACCCTTTGGACTCTCGTCAGTCGTCGGAAACCCTCGACCACGGAGTCACCTAGTGCAG", "binding signal": "8160 fluorescence intensity (a.u.)"},
      {"sequence": "TTAAGATTCGTGCAGCCTCACTCGGACTTGTCATCTGATCCGGAGTCACCTAGTGCAG", "binding signal": "8340 fluorescence intensity (a.u.)"},
      {"sequence": "ATCTTAAGCTGTCCTTTTTCATGCCGAGTCAGAGTTTCATCGGAGTCACCTAGTGCAG", "binding signal": "9130 fluorescence intensity (a.u.)"},
      {"sequence": "AAGACAATTGTGTATCTCTTGTGCACATTTTCCTTCTAATCGGAGTCACCTAGTGCAG", "binding signal": "8330 fluorescence intensity (a.u.)"},
      {"sequence": "CTCACAATTTTTCACATCACCATGTTCTTTAGTTCCTTAGCGGAGTCACCTAGTGCAG", "binding signal": "8480 fluorescence intensity (a.u.)"},
      {"sequence": "CCCTGCTTCCTTTCTTCATCGTCCTCAGCTCATCATCTGCCGGAGTCACCTAGTGCAG", "binding signal": "8940 fluorescence intensity (a.u.)"},
      {"sequence": "TCCATGGCATTTCCTACTTCCTATATTTCCTTTTTTATTGCGGAGTCACCTAGTGCAG", "binding signal": "10600 fluorescence intensity (a.u.)"},
      {"sequence": "GGCTGCGCTTGTACACCTACAGTAGATCTGAAACCTTCTCCGGAGTCACCTAGTGCAG", "binding signal": "9420 fluorescence intensity (a.u.)"},
      {"sequence": "TCATCAGCGGCGGCGGTGTCTTCTTGCTCGGGGAAGGGCTCGGAGTCACCTAGTGCAG", "binding signal": "8680 fluorescence intensity (a.u.)"},
      {"sequence": "ATACTTTGACCATCAATTTATCCCATGTTATGTTTCCGATCGGAGTCACCTAGTGCAG", "binding signal": "11100 fluorescence intensity (a.u.)"},
      {"sequence": "CTCTCTCCTCGTCGTAGGTGTCGTCGCCGTACTGCACCATCGGAGTCACCTAGTGCAG", "binding signal": "9890 fluorescence intensity (a.u.)"},
      {"sequence": "AAAACCCTCCGGCTCATTCTTGCCCACGCCGCGCCGCCGCCGGAGTCACCTAGTGCAG", "binding signal": "8390 fluorescence intensity (a.u.)"},
      {"sequence": "GGCTTACCCAAGAATAACGATCCAACTTGGGGAGGGAGGGCGGAGTCACCTAGTGCAG", "binding signal": "10000 fluorescence intensity (a.u.)"},
      {"sequence": "TATATTTGATCTTCTTCCGTGTGGGGTCCCTTCTTGCTCTCGGAGTCACCTAGTGCAG", "binding signal": "10900 fluorescence intensity (a.u.)"},
      {"sequence": "TTTGAATTGTGGGGTTGTAATGTTTGTTGGGTCATGATGACGGAGTCACCTAGTGCAG", "binding signal": "14800 fluorescence intensity (a.u.)"},
      {"sequence": "CTGTAACCCCATTTTAAACCAAGTCTGTCCACTTCCTTGCCGGAGTCACCTAGTGCAG", "binding signal": "9290 fluorescence intensity (a.u.)"},
      {"sequence": "AGATATTATTTTAGTGTTGTGCATCTACCCGTCCAACTCACGGAGTCACCTAGTGCAG", "binding signal": "8690 fluorescence intensity (a.u.)"},
      {"sequence": "ACAGATCCCACATTCCCACTACTGCATGCTTAGTTGATTACGGAGTCACCTAGTGCAG", "binding signal": "9370 fluorescence intensity (a.u.)"},
      {"sequence": "TGACTGCTTGCATTTGGTGTTATTCTCTGCCATATATAAACGGAGTCACCTAGTGCAG", "binding signal": "9290 fluorescence intensity (a.u.)"},
      {"sequence": "CCACTTTGCCTCTTTCCTCTCCCTTATGCCGCATTTTTCTCGGAGTCACCTAGTGCAG", "binding signal": "8420 fluorescence intensity (a.u.)"},
      {"sequence": "AAGAGCTGGGTTTCTTCTTCATATTCTTAGAAGTTGACTACGGAGTCACCTAGTGCAG", "binding signal": "9470 fluorescence intensity (a.u.)"},
      {"sequence": "CACGACGCCTCACACACATATTTTGCTTCCTTGCTTGTGACGGAGTCACCTAGTGCAG", "binding signal": "11000 fluorescence intensity (a.u.)"},
      {"sequence": "AACACAACACGATACACACTTTAAAATCCCTAAAAAGACACGGAGTCACCTAGTGCAG", "binding signal": "8690 fluorescence intensity (a.u.)"},
      {"sequence": "AGACACAACCCTTATCATCGCCGCCGACTCGACGCCACCACGGAGTCACCTAGTGCAG", "binding signal": "8880 fluorescence intensity (a.u.)"},
      {"sequence": "TTCCCTCTCTATTATGGATCATGTGCCGGGTATCATCACACGGAGTCACCTAGTGCAG", "binding signal": "8090 fluorescence intensity (a.u.)"},
      {"sequence": "GCATTGTACATTTCGTAGTACTATTCTAGCATTGCTTAGTCGGAGTCACCTAGTGCAG", "binding signal": "9640 fluorescence intensity (a.u.)"},
      {"sequence": "GATGCCTTGGGGTTCGGTCTTCCACTTGACATAGTATCCACGGAGTCACCTAGTGCAG", "binding signal": "8090 fluorescence intensity (a.u.)"},
      {"sequence": "ATTAAAAATACACTATTCCTCTTTTTTTTTCTCATATGTTCGGAGTCACCTAGTGCAG", "binding signal": "10100 fluorescence intensity (a.u.)"},
      {"sequence": "CTACAGTCAAAAGTTCGCAACACGCAAGTATGTTCATTTTCGGAGTCACCTAGTGCAG", "binding signal": "8940 fluorescence intensity (a.u.)"},
      {"sequence": "TGTCCTAGCAATTCTCTCTCTAGCTCCAGTATTAATTTCTCGGAGTCACCTAGTGCAG", "binding signal": "9270 fluorescence intensity (a.u.)"},
      {"sequence": "TTCCACAGAGTCAAGTCCACAGAACGTATGCTCCATGTTCCGGAGTCACCTAGTGCAG", "binding signal": "8160 fluorescence intensity (a.u.)"},
      {"sequence": "TCGATTTGGTTTCTGGCTGGATTGGATCCGGGGAGGAGGACGGAGTCACCTAGTGCAG", "binding signal": "10300 fluorescence intensity (a.u.)"},
      {"sequence": "CAATTTTTCTCTCTTCTCTAGTCTCTCTTTTTGTTTCGTCCGGAGTCACCTAGTGCAG", "binding signal": "9730 fluorescence intensity (a.u.)"},
      {"sequence": "ACAATGACTGCGACTTACTTCGTCCTCCCTCGGCGCGATACGGAGTCACCTAGTGCAG", "binding signal": "9000 fluorescence intensity (a.u.)"},
      {"sequence": "GTTTTGTTTAGTTTAGGGGTGGAGATTTCTGGTTTTGTGGCGGAGTCACCTAGTGCAG", "binding signal": "12400 fluorescence intensity (a.u.)"},
      {"sequence": "ATAACATTTTTTTACTGTGTATTTGGGGATCTCAGAAATTCGGAGTCACCTAGTGCAG", "binding signal": "9040 fluorescence intensity (a.u.)"},
      {"sequence": "ACACTTCCCAAAACCCCAAACCGCCCATATCTCTCTCCTCCGGAGTCACCTAGTGCAG", "binding signal": "8130 fluorescence intensity (a.u.)"},
      {"sequence": "GGGTGTAAAGTTTTTTTGTTTCACATCGGGTATTATATAGCGGAGTCACCTAGTGCAG", "binding signal": "8480 fluorescence intensity (a.u.)"},
      {"sequence": "ATTCTAGAACTCAAATATCTCTACAAGTTTTTATTTTCGTCGGAGTCACCTAGTGCAG", "binding signal": "8530 fluorescence intensity (a.u.)"},
      {"sequence": "TTGACACTGTTGACTTTTTAATATATGTTTGACTGTTCGTCGGAGTCACCTAGTGCAG", "binding signal": "20400 fluorescence intensity (a.u.)"},
      {"sequence": "TGCCAGCGAACACGTCTACGGTACACTCCTCGATCGCCTCCGGAGTCACCTAGTGCAG", "binding signal": "8550 fluorescence intensity (a.u.)"}
    ]}
  ]
}
